Values from PubChem BioAssay AID1671195 (Yale University, 2021)
This is a random part of about 22,000 reagents. About 1,510 of all reagents (6.9%) were called active. 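Active includes knockdowns raising or lowering LDL uptake; positive z-scores mean more uptake, negative mean less.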

Aim: 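Regulators of LDL receptor activity judged by labelled LDL uptake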 (primary screen)
Cells: human Huh7 hepatoma cells
Knock-down reagent: siRNA pool against human genes, 18 nM
Time to read-out: about 2 to 2.5 days of knockdown, then 8 h LDL uptake
Challenge: DiI-labelled LDL at 30 µg/ml for 8 h, in lipoprotein-deficient serum medium
Measurement: 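Per-cell DiI-LDL intensity by automated imaging; well means scaled to the plate median and given as a robust z-score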
Reading the numbers: robust z-score: higher = more LDL uptake after knockdown
Active means: 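a gene counts as active if at least two replicate z-scores exceed ±2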

NPEPL1 (aminopeptidase like 1)
- robust z-score, replicate 1: -1.55
- robust z-score, replicate 2: -0.668
- robust z-score, replicate 3: -1.1
- Call: inactive

ASB6 (ankyrin repeat and SOCS box containing 6)
- robust z-score, replicate 1: 0.427
- robust z-score, replicate 2: -0.736
- robust z-score, replicate 3: 0.0859
- Call: inactive

LOC283029 (retired record)
- robust z-score, replicate 1: -0.361
- robust z-score, replicate 2: -0.256
- robust z-score, replicate 3: -0.127
- Call: inactive

TKT (transketolase)
- robust z-score, replicate 1: 0.798
- robust z-score, replicate 2: 0.169
- robust z-score, replicate 3: 1.12
- Call: inactive

INVS (inversin)
- robust z-score, replicate 1: -2.2
- robust z-score, replicate 2: 1.09
- robust z-score, replicate 3: -0.274
- Call: inactive

MAD1L1 (mitotic arrest deficient 1 like 1)
- robust z-score, replicate 1: 0.012
- robust z-score, replicate 2: 0.549
- robust z-score, replicate 3: -0.892
- Call: inactive

CDC25C (cell division cycle 25C)
- robust z-score, replicate 1: 0.0458
- robust z-score, replicate 2: 0.276
- robust z-score, replicate 3: 0.151
- Call: inactive

OR56B1 (olfactory receptor family 56 subfamily B member 1)
- robust z-score, replicate 1: -0.423
- robust z-score, replicate 2: -0.518
- robust z-score, replicate 3: 0.0932
- Call: inactive

KANSL2 (KAT8 regulatory NSL complex subunit 2)
- robust z-score, replicate 1: -1.11
- robust z-score, replicate 2: -1.2
- robust z-score, replicate 3: -0.329
- Call: inactive

CCT6A2P (chaperonin containing TCP1 family member 6A2, pseudogene)
- robust z-score, replicate 1: 1.64
- robust z-score, replicate 2: 1.17
- robust z-score, replicate 3: 1.09
- Call: inactive

RPL23AP15 (ribosomal protein L23a pseudogene 15)
- robust z-score, replicate 1: -0.167
- robust z-score, replicate 2: 0.672
- robust z-score, replicate 3: 0.81
- Call: inactive

PSENEN (presenilin enhancer, gamma-secretase subunit)
- robust z-score, replicate 1: -2.68
- robust z-score, replicate 2: 0.502
- robust z-score, replicate 3: 0.125
- Call: inactive

C11orf40 (chromosome 11 putative open reading frame 40)
- robust z-score, replicate 1: 1.84
- robust z-score, replicate 2: 0.804
- robust z-score, replicate 3: 1.88
- Call: inactive

TRIM17 (tripartite motif containing 17)
- robust z-score, replicate 1: -0.692
- robust z-score, replicate 2: -0.952
- robust z-score, replicate 3: -0.725
- Call: inactive

SUPT3H (SPT3 homolog, SAGA and STAGA complex component)
- robust z-score, replicate 1: 0.789
- robust z-score, replicate 2: 3.35
- robust z-score, replicate 3: 1.86
- Call: inactive

TPT1 (tumor protein, translationally-controlled 1)
- robust z-score, replicate 1: -0.282
- robust z-score, replicate 2: -0.994
- robust z-score, replicate 3: -0.44
- Call: inactive

KLRB1 (killer cell lectin like receptor B1)
- robust z-score, replicate 1: -0.449
- robust z-score, replicate 2: -0.127
- robust z-score, replicate 3: -1.28
- Call: inactive

CYLC1 (cylicin 1)
- robust z-score, replicate 1: -1.1
- robust z-score, replicate 2: -1.85
- robust z-score, replicate 3: -1.35
- Call: inactive

A1CF (APOBEC1 complementation factor)
- robust z-score, replicate 1: 0.513
- robust z-score, replicate 2: 0.719
- robust z-score, replicate 3: -2.36
- Call: inactive

DERL2 (derlin 2)
- robust z-score, replicate 1: 1.24
- robust z-score, replicate 2: -0.471
- robust z-score, replicate 3: 0.624
- Call: inactive

CCBE1 (collagen and calcium binding EGF domains 1)
- robust z-score, replicate 1: 2.13
- robust z-score, replicate 2: 2.05
- robust z-score, replicate 3: 2.81
- Call: active

SLFN13 (schlafen family member 13)
- robust z-score, replicate 1: 1.74
- robust z-score, replicate 2: 1.83
- robust z-score, replicate 3: 1.42
- Call: inactive

DNASE1L3 (deoxyribonuclease 1L3)
- robust z-score, replicate 1: 0.399
- robust z-score, replicate 2: 0.466
- robust z-score, replicate 3: 0.814
- Call: inactive

UBE2E2 (ubiquitin conjugating enzyme E2 E2)
- robust z-score, replicate 1: 0.3
- robust z-score, replicate 2: 0.51
- robust z-score, replicate 3: -0.057
- Call: inactive

KRABD5 (KRAB domain containing 5)
- robust z-score, replicate 1: -0.0178
- robust z-score, replicate 2: 0.384
- robust z-score, replicate 3: 0.261
- Call: inactive

PIP4K2C (phosphatidylinositol-5-phosphate 4-kinase type 2 gamma)
- robust z-score, replicate 1: 2.52
- robust z-score, replicate 2: -0.0839
- robust z-score, replicate 3: 0.0392
- Call: inactive

PAQR3 (progestin and adipoQ receptor family member 3)
- robust z-score, replicate 1: -0.423
- robust z-score, replicate 2: -0.156
- robust z-score, replicate 3: -0.26
- Call: inactive

RGCC (regulator of cell cycle)
- robust z-score, replicate 1: 0.899
- robust z-score, replicate 2: 0.942
- robust z-score, replicate 3: 1.87
- Call: inactive

ZBTB4 (zinc finger and BTB domain containing 4)
- robust z-score, replicate 1: 0.425
- robust z-score, replicate 2: -0.751
- robust z-score, replicate 3: -1.26
- Call: inactive

CDC73 (cell division cycle 73)
- robust z-score, replicate 1: -0.321
- robust z-score, replicate 2: -0.722
- robust z-score, replicate 3: -0.196
- Call: inactive

Limited to “robust z-score, replicate 3” (5 entries from above):
TKT (transketolase)	1.12
INVS (inversin)	-0.274
MAD1L1 (mitotic arrest deficient 1 like 1)	-0.892
CDC25C (cell division cycle 25C)	0.151
OR56B1 (olfactory receptor family 56 subfamily B member 1)	0.0932
